Measured values: PubChem BioAssay AID2685 (National Center for Advancing Translational Sciences (NCATS), 2010)
The other results are listed elsewhere or left out. The main result of the screen is listed elsewhere. These columns were measured beside it and carry no call. The list favours compounds with an active or inconclusive main result. Potencies come from curve fits of mixed quality, noted in brackets.

Experiment: qHTS Assay for Lipid Storage Modulators in Drosophila S3 Cells;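 on cell number change: cells counted by Cell Tracker Red CMTPX staining in the red channel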
Conditions: BODIPY lipid droplet fluorescence, 18-24 h; for cell number change: measured here: cell count max response, cells fed with added oleic acid
Method in brief: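 Laser-scanning cytometry quantifies lipid droplet accumulation (500–530 nm total intensity; droplet/cell object ratio) in oleic acid-fed (400 uM added) Drosophila S3 cells treated with a concentration series. 20 uM Triacsin C defined 100% inhibition.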

[1] = measured here: lipid fluorescence (Fed channel) AC50, cells fed with added oleic acid
[2] = measured here: cell number channel AC50, cells fed with added oleic acid

Compound | cell number change [%] | AC50 [1] | AC50 [2]
CC(c1ccccc1)n1cncc1C(=O)N1CCCC1=O (stereo unspecified) | 6.28 | 0.116 µM [falling, full curve, poor fit] | 
CN(C)c1ccc(/C=C2\CC3C4CC=C5CC(O)CCC5(C)C4CCC3(C)C2=O)cc1 (stereo unspecified) | -12.4 | 6.51 µM [falling, single point] | 
COc1ccccc1N1CCN(Cc2cccc(OC)c2O)CC1 | 9.73 | 3.66 µM [rising, full curve] | 
CCCC(C)C(=O)NC1CCSC1=O (stereo unspecified) | -2.38 | 29.1 µM [falling, single point] | 
COc1cc(CN2CCN(C(=O)COc3ccccc3)CC2)cc(OC)c1OC | 0.594 |  | 
O=c1[nH]c(=O)n(-c2ccc(F)cc2)c(O)c1C=Nc1ccccc1N1CCCC1 | 102 |  | 
O=NN1CCCCC1 | 25.2 | 0.164 µM [rising, full curve, poor fit] | 
CC12CNCC(C)(CNC1)C2O (stereo unspecified) | 6.9 | 2.06 µM [rising, single point] | 
Cc1ccc(-n2c(/C=C/c3ccc4c(c3)OCO4)nc3ccccc3c2=O)cc1 | 47.1 | 1.3 µM [rising, full curve] | 1.16 µM [rising, full curve]
CCOC(=O)C1=C(C)OC(N)=C(C(=O)OCC)C12C(=O)Nc1ccc(Br)cc12 (stereo unspecified) | 15.3 |  | 
Fc1ccc(CCNCc2cccc(Cl)c2)cc1 | -8.22 |  | 
CCN1CCN(Cc2cccnc2)CC1 |  | 0.259 µM [rising, full curve, poor fit] | 
CCOC(=O)c1c(C)n(CC(O)CN2CCOCC2)c2cc(Br)c(OC)cc12 (stereo unspecified) | 12.5 | 4.11 µM [rising, full curve, poor fit] | 
O=C(C(=O)N1CCOCC1)c1cn(Cc2ccccc2Cl)c2ccccc12 | 25.4 |  | 
CN1C(=O)NC(=O)/C(=C/c2ccc([N+](=O)[O-])s2)C1=O | -32.2 | 16.4 µM [falling, partial curve, poor fit] | 
CC(Cc1ccccc1)NC(=O)NC(C)Cc1ccccc1 (stereo unspecified) | 69.7 |  | 14.6 µM [rising, partial curve]
CC(C#N)CCC#N (stereo unspecified) | -25.5 | 0.731 µM [falling, partial curve, poor fit] | 0.461 µM [falling, full curve, poor fit]
Cc1cc(Cl)ccc1OCC(=O)O | -21.4 | 0.231 µM [falling, full curve] | 0.0231 µM [falling, full curve]
Cc1ccccc1NC1=NCCCS1 | -34.6 | 5.8 µM [falling, full curve] | 4.61 µM [falling, full curve, poor fit]
Cc1ccc2c(c1)C1CN(C)CCC1N2C(=O)COc1ccc(S(=O)(=O)N2CCOCC2)cc1 (stereo unspecified) | -1.26 | 0.651 µM [falling, single point] | 

Compound | cell number change [%] | AC50 [1] | AC50 [2]
O=P(Nc1ccccc1)(Nc1ccccc1)Oc1cccc(Cl)c1 | -42.7 |  | 32.6 µM [falling, single point]
COC(=O)C1=C(c2ccccc2OCc2ccccc2)C[C@@H]2CC[C@H]1N2C(=O)NCCOc1ccccc1 | -8.1 | 0.731 µM [falling, full curve, poor fit] | 0.58 µM [falling, single point]
COc1cccc(-n2c(-c3ccoc3)nc3ccccc3c2=O)c1 | 5.57 | 3.26 µM [rising, partial curve] | 2.31 µM [rising, partial curve]
CN1CCN(C(=O)COc2ccc(N(C)S(=O)(=O)c3ccc(F)cc3)cc2)CC1 | -31.7 |  | 0.00651 µM [falling, full curve, poor fit]
CCCN1C[C@H](CSC)C[C@@H]2c3cccc4[nH]cc(c34)C[C@H]21 |  |  | 0.00411 µM [rising, full curve, poor fit]
Cc1cc(C=C(C#N)C#N)ccc1N1CCCC1 | 3.28 | 6.51 µM [falling, single point] | 0.13 µM [falling, full curve, poor fit]
CNC(=O)c1cccn(Cc2ccc(C(F)(F)F)cc2)c1=O |  | 6.51 µM [rising, single point] | 6.51 µM [rising, single point]
CCCCc1ccc(C(=O)O)nc1 | 17.2 | 29.1 µM [rising, single point] | 
CN1C(=O)N(C)C(=O)C2(Cc3ccccc3N3CCOCC32)C1=O (stereo unspecified) | -53.9 |  | 18.4 µM [falling, single point]
CCOP(=O)(OCC)C(NC(=O)Cc1ccccc1)C(Cl)(Cl)Cl (stereo unspecified) | -20.3 |  | 
CN(CC1COc2ccccc2O1)c1nc(-c2cccnc2)nc2ccccc12 (stereo unspecified) | -15 | 0.58 µM [rising, single point] | 
O=C(CCCOc1ccc(Cl)cc1Cl)N1CCC2(CC1)OCCO2 | -1.56 | 29.1 µM [rising, single point] | 
CC(C)C(=O)Nc1ccc(N2CCN(C)CC2)c(F)c1 | 65.8 | 29.1 µM [rising, single point] | 29.1 µM [rising, single point]
CCOc1ccc(-c2cc(C)[n+](CCO)c(-c3ccc(OCC)cc3)c2)cc1 | -35 | 29.1 µM [falling, single point] | 18.4 µM [falling, single point]
CN(CC(=O)Nc1ccc(F)cc1)C(=O)Cn1c(=O)oc2ccccc21 |  |  | 16.4 µM [rising, single point]
CC(=O)Nc1ccccc1OP1(=O)COc2ccccc2OC1 | -8.48 | 6.51 µM [falling, single point] | 1.3 µM [falling, full curve]
CNC(=O)Oc1ccc2ncccc2c1 | 35 | 13 µM [rising, partial curve] | 20.6 µM [rising, single point]
COc1cc(CNCCc2ccc3c(c2)OCO3)cc(OC)c1OC |  | 0.58 µM [falling, single point] | 
CNc1ccccc1 |  |  | 1.16 µM [falling, single point]
Cn1c(=O)oc2cc(S(=O)(=O)N3CCCC3)ccc21 |  |  | 3.66 µM [falling, full curve]

Compound | cell number change [%] | AC50 [1] | AC50 [2]
COCCOC(=O)C1=C(N)Oc2c(c(=O)oc3ccccc23)[C@@]12C(=O)Nc1ccccc12 | 32.6 | 6.51 µM [rising, single point] | 2.91 µM [rising, full curve, poor fit]
OCC1CO1 (stereo unspecified) | -14.2 |  | 1.16 µM [falling, single point]
C=CCn1c(O)c(C(C)=NCCc2c[nH]c3ccccc23)c(=O)[nH]c1=O | -3.53 | 0.291 µM [rising, full curve] | 0.184 µM [rising, full curve]
C/C(=N\NC(=O)c1ccccc1O)c1c(O)n(C2CCCCC2)c(=O)[nH]c1=O | 30.7 | 23.1 µM [rising, single point] | 32.6 µM [rising, single point]
COc1ccc(-n2c(O)c(C(C)=NCc3ccc4c(c3)OCO4)c(=O)[nH]c2=O)cc1 |  | 0.259 µM [rising, partial curve, poor fit] | 0.0731 µM [rising, full curve, poor fit]
CCCCN1C(=O)/C(=C/c2ccc(N(C)C)cc2)C(=O)N(Cc2ccco2)C1=O | 2.78 | 6.51 µM [falling, partial curve] | 
CCCC(CCC)C(=O)OC[N+](C)(C)CCOC(=O)C(O)(c1ccccc1)C1CCCC1 (stereo unspecified) | -15 | 29.1 µM [falling, single point] | 
COC(=O)C1=C(c2ccc(OC(F)(F)F)cc2)C[C@@H]2CC[C@H]1N2C(=O)NCCOc1ccccc1 | -38.3 | 0.00517 µM [rising, full curve, poor fit] | 29.1 µM [falling, single point]
CNC(=O)O/N=C/c1nn(C(=O)C(C)(C)C)cc1Br | -0.381 | 4.11 µM [falling, single point] | 
COc1ccc(C)cc1NS(=O)(=O)c1ccc2c(c1)oc(=O)n2C |  |  | 0.731 µM [rising, full curve, poor fit]
CCc1ccc(-c2nn(Cc3ccccc3)cc2C=O)cc1 |  |  | 0.326 µM [rising, partial curve, poor fit]
Clc1ccc(N2CCN(Cc3ccccc3Cl)CC2)cc1 | -3.89 |  | 
O=c1[nH]c(=S)n(Cc2ccc(F)cc2)c(O)c1/C=N/N1CCCCCC1 | -4.35 | 6.51 µM [rising, single point] | 
N#Cc1c(/N=C/c2c(O)n(Cc3ccco3)c(=O)[nH]c2=O)sc2c1CCCC2 | -6.03 |  | 
CCN1CCN(c2nc3c(c(=O)[nH]2)CCCC3)CC1 | -46.5 | 29.1 µM [falling, single point] | 29.1 µM [falling, single point]
Cc1ccc(-c2nc3ccccc3c(=O)n2-n2cccc2)cc1 | -50.4 | 0.206 µM [rising, full curve] | 29.1 µM [falling, single point]
Cc1ccc([N+](=O)[O-])cc1 | -3.73 | 0.00461 µM [rising, full curve, poor fit] | 
Fc1c(F)c(F)c(N2CCNCC2)c(F)c1F | -30.5 |  | 
Brc1ccc2[nH]cc(/C=N/N3CCCCC3)c2c1 | 7.26 | 0.517 µM [rising, full curve, poor fit] | 
CC(C)CC12CN3CCN(CC(C3)/C1=N/O)C2 | -28 | 0.651 µM [falling, full curve, poor fit] | 0.92 µM [falling, full curve]
